From patent US20190105405A1 (MONASH UNIVERSITY, published 2019)
Results are given in words; binding and its absence hold for the method and conditions named. Binding seen in cells or lysates may run through a third protein. Some binding calls cover weakened binding; strength is not graded here. Values belong to the molecule of their own block, whether it stands above or below them.

The chains behind the UniProt entries cited, without tags or fusion partners. Where a name states a change or a piece, a line headed by the entry shows the natural chain unless it says otherwise. Residues count along the entry.
UniProt O14672: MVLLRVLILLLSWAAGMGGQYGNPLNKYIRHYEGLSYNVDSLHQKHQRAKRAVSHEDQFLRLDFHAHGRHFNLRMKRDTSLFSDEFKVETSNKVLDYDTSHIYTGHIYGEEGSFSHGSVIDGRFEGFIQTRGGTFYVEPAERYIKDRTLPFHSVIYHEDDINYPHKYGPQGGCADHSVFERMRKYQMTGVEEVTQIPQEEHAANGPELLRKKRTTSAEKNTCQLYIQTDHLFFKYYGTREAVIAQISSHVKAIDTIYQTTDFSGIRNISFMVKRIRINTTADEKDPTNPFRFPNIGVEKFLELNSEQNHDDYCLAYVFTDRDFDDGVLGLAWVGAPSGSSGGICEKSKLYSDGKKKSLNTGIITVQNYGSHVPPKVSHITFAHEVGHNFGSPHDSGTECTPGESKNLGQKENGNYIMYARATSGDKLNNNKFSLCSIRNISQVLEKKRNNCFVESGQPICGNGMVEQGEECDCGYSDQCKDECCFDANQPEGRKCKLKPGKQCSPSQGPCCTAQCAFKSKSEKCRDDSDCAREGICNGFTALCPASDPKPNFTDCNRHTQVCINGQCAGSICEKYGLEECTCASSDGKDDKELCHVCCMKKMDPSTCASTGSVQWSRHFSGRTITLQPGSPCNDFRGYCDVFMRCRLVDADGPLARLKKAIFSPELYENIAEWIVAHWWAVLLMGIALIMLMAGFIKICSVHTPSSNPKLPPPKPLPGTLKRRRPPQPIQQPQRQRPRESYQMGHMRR
UniProt P46531, residues 1665-2555: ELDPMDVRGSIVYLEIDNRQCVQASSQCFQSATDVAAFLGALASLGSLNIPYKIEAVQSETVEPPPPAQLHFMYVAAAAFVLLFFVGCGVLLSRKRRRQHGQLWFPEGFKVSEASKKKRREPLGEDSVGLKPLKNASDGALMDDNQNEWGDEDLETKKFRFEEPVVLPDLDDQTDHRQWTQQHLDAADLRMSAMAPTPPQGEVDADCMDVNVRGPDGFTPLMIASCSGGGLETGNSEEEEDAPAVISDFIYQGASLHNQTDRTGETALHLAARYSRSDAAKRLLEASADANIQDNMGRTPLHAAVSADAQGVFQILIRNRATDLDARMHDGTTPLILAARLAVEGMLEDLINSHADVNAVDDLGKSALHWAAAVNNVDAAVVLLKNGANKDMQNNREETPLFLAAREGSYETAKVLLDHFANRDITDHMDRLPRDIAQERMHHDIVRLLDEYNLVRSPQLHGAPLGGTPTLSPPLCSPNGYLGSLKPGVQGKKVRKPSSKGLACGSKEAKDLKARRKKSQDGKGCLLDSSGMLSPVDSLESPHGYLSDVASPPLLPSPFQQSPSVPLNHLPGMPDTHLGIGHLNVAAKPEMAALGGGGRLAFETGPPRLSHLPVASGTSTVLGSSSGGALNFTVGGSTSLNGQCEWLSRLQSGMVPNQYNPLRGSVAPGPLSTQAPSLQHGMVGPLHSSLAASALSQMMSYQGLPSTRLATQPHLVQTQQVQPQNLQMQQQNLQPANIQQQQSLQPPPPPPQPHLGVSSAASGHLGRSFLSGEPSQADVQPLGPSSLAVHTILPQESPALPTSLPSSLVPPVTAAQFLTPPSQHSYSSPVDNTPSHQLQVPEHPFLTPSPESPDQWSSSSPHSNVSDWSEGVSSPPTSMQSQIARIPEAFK

Target: human ADAM10, endogenous full length (human) (UniProt O14672)
Test: co-immunoprecipitation with ADAM10 from LIM1215 lysate by 8C7 or 4A11, Western blot

- binding: binds
Molecule: Notch 1 (from UniProt P46531) (receptor)

- binding: binds
B1: Notch 2 (receptor, UniProt Q04721 1609-2471, looked up)
receptor chain: SLPGEQEQEVAGSKVFLEIDNRQCVQDSDHCFKNTDAAAALLASHAIQGTLSYPLVSVVSESLTPERTQLLYLLAVAVVIILFIILLGVIMAKRKRKHGSLWLPEGFTLRRDASNHKRREPVGQDAVGLKNLSVQVSEANLIGTGTSEHWVDDEGPQPKKVKAEDEALLSEEDDPIDRRPWTQQHLEAADIRRTPSLALTPPQAEQEVDVLDVNVRGPDGCTPLMLASLRGGSSDLSDEDEDAEDSSANIITDLVYQGASLQAQTDRTGEMALHLAARYSRADAAKRLLDAGADANAQDNMGRCPLHAAVAADAQGVFQILIRNRVTDLDARMNDGTTPLILAARLAVEGMVAELINCQADVNAVDDHGKSALHWAAAVNNVEATLLLLKNGANRDMQDNKEETPLFLAAREGSYEAAKILLDHFANRDITDHMDRLPRDVARDRMHHDIVRLLDEYNVTPSPPGTVLTSALSPVICGPNRSFLSLKHTPMGKKSRRPSAKSTMPTSLPNLAKEAKDAKGSRRKKSLSEKVQLSESSVTLSPVDSLESPHTYVSDTTSSPMITSPGILQASPNPMLATAAPPAPVHAQHALSFSNLHEMQPLAHGASTVLPSVSQLLSHHHIVSPGSGSAGSLSRLHPVPVPADWMNRMEVNETQYNEMFGMVLAPAEGTHPGIAPQSRPPEGKHITTPREPLPPIVTFQLIPKGSIAQPAGAPQPQSTCPPAVAGPLPTMYQIPEMARLPSVAFPTAMMPQQDGQVAQTILPAYHPFPASVGKYPTPPSQHSYASSNAAERTPSHSGHLQGEHPYLTPSPESPDQWSSSSPHSASDWSDVTTSPTPGGAGGGQRGPGTHMSEPPHNNMQVYA
